PubChem BioAssay AID2662 (National Center for Advancing Translational Sciences (NCATS), 2010)
Screen size: about 290,000 compounds; about 110 (0.038%) were called active. Inconclusive means that the source gave no clear call. Such entries were picked first, then a sample of the others. Calls follow the shape of the dose curve; as a rule, active = well fitted inhibition curve with a large enough effect in the polarisation, with a control signal flat (not every such curve was filed as active); inconclusive = small, poorly fitted or top-dose-only effect, or effect the other way, or a change in a side signal; inactive = no such curve, though single readings can be large or run the other way; the % refers to the polarisation. Potencies beside an inconclusive call are fits to weak or partial responses and may not hold up. “Side channel” marks fits to a control or component signal instead of the main read-out.

Amino acid sequences for entries named in this document (tags omitted).
UniProt Q03164, whole entry, looked up: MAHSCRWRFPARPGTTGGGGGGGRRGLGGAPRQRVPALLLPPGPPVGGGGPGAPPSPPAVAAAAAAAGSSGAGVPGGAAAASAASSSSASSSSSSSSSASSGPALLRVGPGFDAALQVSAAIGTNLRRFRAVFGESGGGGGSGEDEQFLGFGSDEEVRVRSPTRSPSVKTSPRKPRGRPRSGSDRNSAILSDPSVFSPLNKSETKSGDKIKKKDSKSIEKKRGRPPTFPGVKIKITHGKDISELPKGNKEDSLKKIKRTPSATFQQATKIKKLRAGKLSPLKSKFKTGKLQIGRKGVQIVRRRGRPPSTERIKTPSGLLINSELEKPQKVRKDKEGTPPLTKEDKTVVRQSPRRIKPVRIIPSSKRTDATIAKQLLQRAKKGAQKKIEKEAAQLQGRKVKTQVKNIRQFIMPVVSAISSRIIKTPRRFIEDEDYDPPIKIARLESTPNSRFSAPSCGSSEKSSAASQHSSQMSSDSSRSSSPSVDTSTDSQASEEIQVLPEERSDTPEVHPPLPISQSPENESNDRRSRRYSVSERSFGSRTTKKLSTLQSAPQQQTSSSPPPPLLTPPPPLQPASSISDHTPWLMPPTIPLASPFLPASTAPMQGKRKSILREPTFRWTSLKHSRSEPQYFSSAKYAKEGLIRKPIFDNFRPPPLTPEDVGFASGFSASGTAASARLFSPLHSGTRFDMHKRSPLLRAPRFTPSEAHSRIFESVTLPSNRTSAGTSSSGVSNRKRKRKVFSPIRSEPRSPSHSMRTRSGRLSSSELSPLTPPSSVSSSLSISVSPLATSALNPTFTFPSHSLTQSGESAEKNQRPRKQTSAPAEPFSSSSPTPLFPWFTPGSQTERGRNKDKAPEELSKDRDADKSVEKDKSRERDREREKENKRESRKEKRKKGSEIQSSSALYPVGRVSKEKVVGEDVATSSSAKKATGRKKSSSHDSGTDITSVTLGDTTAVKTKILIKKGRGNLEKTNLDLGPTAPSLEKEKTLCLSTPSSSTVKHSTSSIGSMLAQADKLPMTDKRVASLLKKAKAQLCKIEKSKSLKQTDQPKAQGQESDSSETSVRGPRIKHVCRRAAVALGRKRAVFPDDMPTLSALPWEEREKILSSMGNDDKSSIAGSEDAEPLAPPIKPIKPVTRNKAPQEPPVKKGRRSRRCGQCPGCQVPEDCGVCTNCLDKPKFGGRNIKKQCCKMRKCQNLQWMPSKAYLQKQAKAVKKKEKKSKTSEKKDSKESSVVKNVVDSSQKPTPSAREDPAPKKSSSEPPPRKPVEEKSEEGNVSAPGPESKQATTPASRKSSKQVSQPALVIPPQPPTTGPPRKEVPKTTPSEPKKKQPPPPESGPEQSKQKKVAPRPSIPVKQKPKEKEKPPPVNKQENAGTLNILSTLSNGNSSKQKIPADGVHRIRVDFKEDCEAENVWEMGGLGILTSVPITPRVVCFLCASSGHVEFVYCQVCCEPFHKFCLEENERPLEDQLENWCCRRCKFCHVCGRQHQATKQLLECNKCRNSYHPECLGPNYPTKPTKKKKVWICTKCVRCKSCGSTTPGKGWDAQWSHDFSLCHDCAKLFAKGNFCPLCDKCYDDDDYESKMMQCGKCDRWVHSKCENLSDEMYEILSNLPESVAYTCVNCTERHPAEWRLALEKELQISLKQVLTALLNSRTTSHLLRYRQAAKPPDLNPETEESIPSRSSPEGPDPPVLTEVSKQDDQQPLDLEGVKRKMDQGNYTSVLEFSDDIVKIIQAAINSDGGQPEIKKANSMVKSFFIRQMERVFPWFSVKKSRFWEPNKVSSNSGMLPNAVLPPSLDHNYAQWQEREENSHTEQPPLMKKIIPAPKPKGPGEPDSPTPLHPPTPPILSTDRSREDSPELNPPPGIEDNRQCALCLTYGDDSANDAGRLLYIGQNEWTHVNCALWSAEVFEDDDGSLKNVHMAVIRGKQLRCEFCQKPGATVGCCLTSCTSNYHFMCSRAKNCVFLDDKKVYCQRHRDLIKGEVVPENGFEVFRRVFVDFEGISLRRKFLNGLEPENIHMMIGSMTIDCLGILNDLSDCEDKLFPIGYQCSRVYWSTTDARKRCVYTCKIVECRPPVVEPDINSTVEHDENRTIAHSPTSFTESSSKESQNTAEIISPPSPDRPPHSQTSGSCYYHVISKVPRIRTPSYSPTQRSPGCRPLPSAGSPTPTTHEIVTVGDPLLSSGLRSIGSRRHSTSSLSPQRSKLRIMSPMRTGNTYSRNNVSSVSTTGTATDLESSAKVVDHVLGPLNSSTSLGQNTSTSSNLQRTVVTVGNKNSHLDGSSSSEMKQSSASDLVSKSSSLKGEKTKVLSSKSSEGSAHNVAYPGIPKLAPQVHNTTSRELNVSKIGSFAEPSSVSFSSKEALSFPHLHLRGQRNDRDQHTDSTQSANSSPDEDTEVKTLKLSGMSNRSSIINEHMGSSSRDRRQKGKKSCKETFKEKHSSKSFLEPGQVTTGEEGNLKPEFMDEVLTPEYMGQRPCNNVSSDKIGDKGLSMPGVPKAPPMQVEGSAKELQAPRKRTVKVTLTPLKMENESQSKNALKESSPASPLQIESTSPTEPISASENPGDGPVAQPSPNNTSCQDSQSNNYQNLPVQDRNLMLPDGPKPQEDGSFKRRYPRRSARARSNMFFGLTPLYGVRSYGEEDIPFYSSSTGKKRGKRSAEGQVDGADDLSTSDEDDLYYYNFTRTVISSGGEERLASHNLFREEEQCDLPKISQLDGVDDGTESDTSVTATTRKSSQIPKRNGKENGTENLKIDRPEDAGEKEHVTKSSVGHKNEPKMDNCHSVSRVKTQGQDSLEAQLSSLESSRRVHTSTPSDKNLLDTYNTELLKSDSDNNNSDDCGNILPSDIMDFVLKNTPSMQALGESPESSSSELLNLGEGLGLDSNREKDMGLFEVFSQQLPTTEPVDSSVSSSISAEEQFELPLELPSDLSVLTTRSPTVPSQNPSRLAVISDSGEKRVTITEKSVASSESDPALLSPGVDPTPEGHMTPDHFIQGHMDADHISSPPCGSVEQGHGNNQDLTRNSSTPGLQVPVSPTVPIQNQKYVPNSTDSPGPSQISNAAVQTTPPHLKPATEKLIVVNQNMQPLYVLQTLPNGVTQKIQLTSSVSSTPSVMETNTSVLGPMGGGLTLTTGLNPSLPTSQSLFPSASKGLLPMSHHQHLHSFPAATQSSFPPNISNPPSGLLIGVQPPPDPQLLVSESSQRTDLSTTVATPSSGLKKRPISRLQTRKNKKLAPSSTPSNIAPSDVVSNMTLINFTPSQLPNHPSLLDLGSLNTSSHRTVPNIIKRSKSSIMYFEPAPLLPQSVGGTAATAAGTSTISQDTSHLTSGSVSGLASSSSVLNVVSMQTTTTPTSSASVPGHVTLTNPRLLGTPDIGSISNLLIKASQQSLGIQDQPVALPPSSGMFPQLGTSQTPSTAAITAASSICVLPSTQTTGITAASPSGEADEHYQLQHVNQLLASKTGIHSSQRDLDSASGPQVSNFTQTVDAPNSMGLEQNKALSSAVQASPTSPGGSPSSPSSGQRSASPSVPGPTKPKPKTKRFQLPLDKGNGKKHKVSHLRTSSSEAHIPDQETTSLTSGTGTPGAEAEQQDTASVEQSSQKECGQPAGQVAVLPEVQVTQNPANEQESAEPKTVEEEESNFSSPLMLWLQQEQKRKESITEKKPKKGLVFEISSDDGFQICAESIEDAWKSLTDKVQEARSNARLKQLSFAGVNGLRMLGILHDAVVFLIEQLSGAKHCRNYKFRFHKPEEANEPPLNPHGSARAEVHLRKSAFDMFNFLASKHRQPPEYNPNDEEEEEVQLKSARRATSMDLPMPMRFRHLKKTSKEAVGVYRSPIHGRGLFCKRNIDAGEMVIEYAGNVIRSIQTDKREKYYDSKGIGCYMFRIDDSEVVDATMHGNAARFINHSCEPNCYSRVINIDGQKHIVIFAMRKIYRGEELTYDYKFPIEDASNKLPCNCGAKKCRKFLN

Molecular target: Histone-lysine N-methyltransferase 2A (Homo sapiens) (UniProt Q03164)
Assay: qHTS Fluorescence Polarization Assay for Inhibitors of MLL CXXC domain - DNA interaction
Conditions: MLL-CXXC / FITC-HOXA9 DNA fluorescence polarization; activity change, negative = inhibition: at 115 µM (top of the series)
Summary of the method: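 Purified MLL-CXXC (added from a 7 uM solution) was preincubated 5 min at ambient with pinned compounds in 50 mM Tris-HCl pH 7.5, 50 mM NaCl, 1 mM DTT, 0.05% BSA. Fluorescein-labeled HOX-A9 DNA (50 nM solution) followed, 30 min, then polarization read.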
Potency is read from the fitted curve at half-maximal effect.

Structure (SMILES)	activity change, negative = inhibition	Potency
O=C(N/N=C/c1ccc(OCC(=O)N2CCCCC2)cc1)c1ccccc1	inactive: 6.01%	–
CC(=O)Nc1ccc(S(=O)(=O)N/N=C/c2cccnc2)cc1	–	inconclusive: 14.1 µM [quencher, side channel, single point]
Cc1cc(N2C(=O)c3ccc(C(=O)Nc4ccccc4O)cc3C2=O)no1	–	inconclusive: 11.2 µM [fluorescent, side channel, single point]
CCN(C(=O)Cc1c(C(=O)O)[nH]c2ccccc12)c1cc(OC)ccc1OC	–	inconclusive: 89.1 µM [inhibitor, single point]
CC1=NN(c2ccccc2)C(=O)/C1=C/C=C/c1ccc(N(C)C)cc1	–	inconclusive: 25.1 µM [inhibitor, partial curve]
CC1CCc2cccc3c2N1c1cc(C#N)c(C#N)cc1O3 (stereo not drawn)	–	inconclusive: 39.8 µM [inhibitor, single point]
COCC(C)Nc1ncnc2c1cnn2-c1ccc(Cl)cc1 (stereo not drawn)	inactive: -0.934%	–
COc1cc2[nH]c(=O)n(Cc3ccc(C(=O)NCC4CCCO4)cc3)c(=O)c2cc1OC (stereo not drawn)	inactive: 4.29%	–
S=C(Nc1ccccc1Cl)N(Cc1ccccc1)Cc1ccccn1	inactive: 3.16%	–
CN1/C(=C/C=C(/C#N)C(N)=O)C(C)(C)c2ccccc21	–	inconclusive: 5.62 µM [fluorescent, side channel, partial curve]
COc1ccccc1NC1=C(Cl)C(=O)N(C2CCCCC2)C1=O	–	inconclusive: 39.8 µM [inhibitor, single point]
CCc1ccc(C2C(C#N)=C(N)SC(N)=C2C#N)cc1	–	inconclusive: 44.7 µM [fluorescent, single point]
Cc1cccc2[nH]c(CN(C)Cc3nc(CC4CC4)no3)nc12	–	inconclusive: 17.8 µM [quencher, side channel, partial curve]
COc1ccc(/C=C2\CCCc3c2nc2ccccc2c3C(=O)O)cc1OC	–	inconclusive: 14.1 µM [fluorescent, side channel, partial curve]
CC(=O)NNC(=O)CN1C(=O)/C(=C/c2ccccc2)SC1=S	–	inconclusive: 14.1 µM [inhibitor, partial curve]
CCN1CCN(c2cc(N3CCN(C(=O)c4ccco4)CC3)c3c4c(onc24)-c2ccccc2C3=O)CC1	–	inconclusive: 79.4 µM [fluorescent, side channel, single point]
COC(=O)N/N=C/c1cc([N+](=O)[O-])cc(Br)c1O	inactive: 14.5%	–
O=C(/C=C/c1ccc(F)cc1)NC(=S)N1CCOCC1	–	inconclusive: 12.6 µM [fluorescent, side channel, full curve]
Cc1ccc(-c2noc(CSc3nnc(Cc4ccccc4)n3-c3ccc(Cl)cc3)n2)cc1	–	inconclusive: 17.8 µM [inhibitor, full curve, poor fit]
O=C(NNS(=O)(=O)c1ccccc1F)c1sccc1-n1cccc1	–	inconclusive: 11.2 µM [quencher, side channel, partial curve]

Structure (SMILES)	activity change, negative = inhibition	Potency
CCS(=O)(=O)C1=NN2C(=N)/C(=C\c3ccc(OC(=O)c4ccco4)c(Br)c3)C(=O)N=C2S1	–	inconclusive: 15.8 µM [fluorescent, side channel, partial curve]
CC1=NN(c2ccccc2)C(=O)/C1=C/C=C/c1ccccc1	–	inconclusive: 7.94 µM [inhibitor, partial curve]
COc1ccc(C)c(NC(=O)C2CC(=O)NC3=C2C(=O)CCC3)c1 (stereo not drawn)	–	inconclusive: 14.1 µM [fluorescent, side channel, single point]
O=C1C2C3CCC(CC3)C2C(=O)N1c1ccccc1 (stereo not drawn)	–	inconclusive: 31.6 µM [fluorescent, side channel, single point]
CO/N=C/C(c1ncc(C(F)(F)F)cc1Cl)S(=O)(=O)c1ccccc1 (stereo not drawn)	–	inconclusive: 15.8 µM [fluorescent, side channel, full curve]
O=C1Nc2ccc(F)cc2C12OCCO2	–	inconclusive: 39.8 µM [fluorescent, side channel, single point]
CCCCCCCCn1c2c(c(=N)c3ccccc31)CCC2	inactive: 3.63%	–
O=C(Oc1ccc(C(=S)N2CCCCC2)cc1)c1ccccc1F	–	inconclusive: 35.5 µM [fluorescent, side channel, single point]
ClCc1nc2ccccc2n1Cc1ccccc1	–	inconclusive: 35.5 µM [fluorescent, single point]
CN(C)c1ccc(-n2cccc2)cc1	inactive: -0.886%	–
COCCCNC(=O)CCC(=O)NNc1nc2ccccc2c2nc(-c3ccccc3)nn12	–	inconclusive: 70.8 µM [quencher, side channel, single point]
CCOC(=O)c1c(C)oc2c1c(CN1CCN(CCO)CC1)c(O)c1ccccc12	–	inconclusive: 35.5 µM [quencher, side channel, single point]
CCOC(=O)c1cn2nc(N3CCCCC3)ccc2n1	–	inconclusive: 11.2 µM [inhibitor, partial curve]
O=C(Nc1ccc(F)c(Cl)c1)c1cc(-c2ccco2)on1	–	inconclusive: 1.41 µM [fluorescent, side channel, full curve, poor fit]
O=c1[nH]c2cc3c(cc2cc1CN(CCO)S(=O)(=O)c1ccccc1)OCCO3	–	inconclusive: 63.1 µM [inhibitor, single point]
CCOC(=O)/C(=C/C=C1\Sc2cc(OCC)c(OCC)cc2N1CC)C(C)=O	–	inconclusive: 126 µM [fluorescent, side channel, partial curve, poor fit]
CC(C)(C)c1ccc(C(=O)Nc2sc3c(c2C(=O)O)CCC3)cc1	–	inconclusive: 8.91 µM [inhibitor, single point]
Cc1ccccc1C(=O)N1CCC(C(=O)NC2CCCCCC2)CC1	–	inconclusive: 44.7 µM [fluorescent, side channel, single point]
Cc1ccc2c(c1)S/C(=C\c1cccc[n+]1C)N2CCO	–	inconclusive: 7.08 µM [fluorescent, side channel, partial curve]
O=C(O)c1ccc2c(c1)C(=O)N(c1cccc(C(=O)/C=C/c3ccccc3)c1)C2=O	–	inconclusive: 35.5 µM [inhibitor, partial curve]

Among those listed so far, 4 have a COOH group:
Structure (SMILES)	activity change, negative = inhibition	Potency
CCN(C(=O)Cc1c(C(=O)O)[nH]c2ccccc12)c1cc(OC)ccc1OC	–	inconclusive: 89.1 µM [inhibitor, single point]
COc1ccc(/C=C2\CCCc3c2nc2ccccc2c3C(=O)O)cc1OC	–	inconclusive: 14.1 µM [fluorescent, side channel, partial curve]
CC(C)(C)c1ccc(C(=O)Nc2sc3c(c2C(=O)O)CCC3)cc1	–	inconclusive: 8.91 µM [inhibitor, single point]
O=C(O)c1ccc2c(c1)C(=O)N(c1cccc(C(=O)/C=C/c3ccccc3)c1)C2=O	–	inconclusive: 35.5 µM [inhibitor, partial curve]

Additional structures follow.

Structure (SMILES)	activity change, negative = inhibition	Potency
Fc1ccc(-[n+]2nc(Nc3ccccc3)sc2-c2cccc(Cl)c2Cl)cc1	–	inconclusive: 31.6 µM [quencher, side channel, partial curve]
O=S(=O)(Cc1ccccc1Cl)c1ncn[nH]1	–	inconclusive: 1.41 µM [quencher, side channel, full curve]
O=c1[nH]c(CSc2ncnc3sccc23)nc2ccccc12	–	inconclusive: 63.1 µM [inhibitor, single point]
COc1cc(Cl)c(S(=O)(=O)NCCCN2CCOCC2)cc1Cl	–	inconclusive: 1.58 µM [quencher, side channel, full curve]
Cc1nc(NC(=S)NC(=O)c2cncc(Br)c2)ccc1Br	–	inconclusive: 8.91 µM [inhibitor, single point]
Cc1csc(NC(=O)CSc2ccc3nnc(-c4ccncc4)n3n2)n1	–	inconclusive: 39.8 µM [fluorescent, side channel, single point]
Nc1nc(Nc2ccccc2Cl)cc(=O)[nH]1	–	inconclusive: 31.6 µM [fluorescent, side channel, partial curve]
COc1ccc(CN2CC(=O)N(c3ccc(Cl)cc3)C2=S)cc1OC	–	inconclusive: 15.8 µM [inhibitor, single point]
O=c1[nH]nc(CNc2ccc(Cl)cc2Cl)c2ccccc12	–	inconclusive: 100 µM [fluorescent, side channel, partial curve, poor fit]
CS(=O)(=O)NCc1ccc(C(=O)O)cc1	–	inconclusive: 8.91 µM [fluorescent, side channel, single point]
CCN(CC)S(=O)(=O)c1cccc(C(=O)Nc2cc3oc4ccccc4c3cc2OC)c1	–	inconclusive: 50.1 µM [inhibitor, single point]
CCC(C)NC(=O)C1CCN(S(=O)(=O)c2cc([N+](=O)[O-])ccc2Cl)CC1 (stereo not drawn)	–	inconclusive: 50.1 µM [inhibitor, single point]
C/C(=N\NC(=O)CCc1c[nH]c2ccccc12)c1cccc([N+](=O)[O-])c1	–	inconclusive: 8.91 µM [fluorescent, side channel, single point]
C[C@@H]1CN(C(=O)c2ccc(OC3CCN(S(=O)(=O)N(C)C)CC3)cc2)C[C@H](C)O1	–	inconclusive: 7.94 µM [quencher, side channel, single point]
OC1CN=C2CCCc3c2n(c2ccc(Cl)cc32)C1 (stereo not drawn)	–	inconclusive: 70.8 µM [quencher, side channel, single point]
CCOc1ccc(CCNC(=O)c2cccc3c2C(=O)N(CCOC)C3)cc1OCC	–	inconclusive: 1.58 µM [fluorescent, side channel, full curve, poor fit]
COc1ccc(/C=C2\Oc3cc(OCC(=O)N4CCC(C(=O)O)CC4)ccc3C2=O)c(OC)c1	–	inconclusive: 70.8 µM [fluorescent, side channel, single point]
COCCNC(=O)c1ccc(CS(=O)(=O)c2ccc(Cl)cc2)o1	–	inconclusive: 89.1 µM [quencher, side channel, single point]
